This is an account of results in publication PMC11571207 (Journal of Medicinal Chemistry, 2024).

A short description of this data set: general procedure: Fmoc solid-phase peptide synthesis; Rink Amide AM resin. Conditions: whole synthesis.

Plain letter strings leave the end groups untold. Some peptides are written in HELM: one residue between dots, names in brackets for other building blocks, links after the first $.

Under “scale 357 mg, 0.29 mmol/g”, “PEPTIDE1{V.D.K.P.P.Y.L.P.R.P.R.P.P.R.R.I.Y.N.R.[am]}$$$$V2.0” displayed an isolated mass of 111 mg and an isolated yield of 34%.
Take “PEPTIDE1{V.D.K.P.P.Y.L.P.R.P.R.P.P.R.[dR].I.Y.N.[dR].[am]}$$$$V2.0”: under “scale 300 mg, 0.25 mmol/g”, the isolated mass is 18 mg and the isolated yield worked out at 8%.
With “PEPTIDE1{V.D.K.P.P.Y.L.P.R.P.R.P.P.R.[dR].[dI].[dY].[dN].[dR].[am]}$$$$V2.0”, where the note is “scale 298 mg, 0.29 mmol/g”, the isolated mass amounted to 84 mg and the isolated yield was 31%.
In the case of “PEPTIDE1{V.D.K.P.P.Y.L.P.R.P.R.[dP].P.R.R.I.Y.N.R.[am]}$$$$V2.0”, for the setting “scale 300 mg, 0.25 mmol/g”, the isolated mass is given as 13 mg and the isolated yield came out at 6%.
For “PEPTIDE1{V.D.K.P.P.Y.L.P.R.P.R.[dP].[dP].[dR].[dR].[dI].[dY].[dN].[dR].[am]}$$$$V2.0” the same measures were 7.4 mg and 3%.
For “PEPTIDE1{V.D.K.P.P.Y.L.P.R.P.[dR].P.P.R.R.I.Y.N.R.[am]}$$$$V2.0” the same measures were 50.6 mg and 22%.
For the setting “scale 300 mg, 0.25 mmol/g”, “PEPTIDE1{V.D.K.P.P.Y.L.P.R.P.[dR].[dP].[dP].[dR].[dR].[dI].[dY].[dN].[dR].[am]}$$$$V2.0” registered an isolated mass of 7.3 mg and an isolated yield of 3%.
Take “PEPTIDE1{V.D.K.P.P.Y.L.P.R.[dP].R.P.P.R.R.I.Y.N.R.[am]}$$$$V2.0”: under “scale 300 mg, 0.25 mmol/g”, the isolated mass was 40.7 mg and the isolated yield is 18%.
As to “PEPTIDE1{V.D.K.P.P.Y.L.P.[dR].P.R.P.P.R.R.I.Y.N.R.[am]}$$$$V2.0”, under “scale 300 mg, 0.29 mmol/g”, the isolated mass was determined as 7.6 mg and the isolated yield was 3%.
Take “PEPTIDE1{V.D.K.P.P.Y.L.[dP].R.P.R.P.P.R.R.I.Y.N.R.[am]}$$$$V2.0”: for the setting “scale 305 mg, 0.29 mmol/g”, the isolated mass is reported as 99 mg and the isolated yield was 35%.
Turning to “PEPTIDE1{V.D.K.P.P.Y.[dL].P.R.P.R.P.P.R.R.I.Y.N.R.[am]}$$$$V2.0”, for the setting “scale 326 mg, 0.29 mmol/g”, the isolated mass was 110 mg and the isolated yield is on record as 37%.
Under “scale 329 mg, 0.29 mmol/g”, “PEPTIDE1{V.D.K.P.P.[dY].L.P.R.P.R.P.P.R.R.I.Y.N.R.[am]}$$$$V2.0” gave an isolated mass of 130 mg and an isolated yield of 43%.
Under “scale 315 mg, 0.29 mmol/g”, “PEPTIDE1{V.D.K.P.[dP].Y.L.P.R.P.R.P.P.R.R.I.Y.N.R.[am]}$$$$V2.0” returned an isolated mass of 98 mg and an isolated yield of 34%.
As for “PEPTIDE1{V.D.K.[dP].P.Y.L.P.R.P.R.P.P.R.R.I.Y.N.R.[am]}$$$$V2.0”, for the setting “scale 310 mg, 0.29 mmol/g”, the isolated mass was 120 mg and the isolated yield came out at 42%.
For the setting “scale 335 mg, 0.29 mmol/g”, “PEPTIDE1{V.D.K.[dP].[dP].Y.L.P.R.P.R.P.P.R.R.I.Y.N.R.[am]}$$$$V2.0” came in with an isolated mass of 104 mg and an isolated yield of 34%.
As for “PEPTIDE1{[dV].[dD].[dK].[dP].[dP].[dY].[dL].[dP].[dR].[dP].[dR].[dP].[dP].[dR].[dR].[dI].[dY].[dN].[dR].[am]}$$$$V2.0”, for the setting “scale 348 mg, 0.29 mmol/g”, the isolated mass is recorded as 96 mg and the isolated yield is 30%.
Consider VDKPPYLPRPRPPROIYNO, for which, for the setting “scale 305 mg, 0.29 mmol/g”, the isolated mass amounted to 109 mg and the isolated yield is recorded as 40%.
